At least one compound was matched to its structure with a doubt left.
system: fungi; experiment: Fungicidal activity of pasteurisation adjuncts at 50° C. versus 30° C. (MIC50); assay type: cell-based; settings: rating of importance as pasteurisation adjunct
Method: In the table the minimum inhibitory concentration (MIC) is given for each compound as well as the molecular weight (M.W.), the logPoct and a rating of its importance. […] The logPoct, that is the logarithm of the partition coefficient of the relevant compound in octanol and thus a measure of its […], was determined using […]™ software from the CHEMOFFICE ULRA ENHANCED 2000™ software package (version 5.5) that is commercially available from CambridgeSoft.

| Compound | Importance |
| --- | --- |
| C=C(C)C1CC=C(C)C(OC(=O)CC)C1 (stereo not drawn) [Carvyl propionate] | Mod |
| O=C1CCCCCCCCCCCCCCO1 [w-Pentadecalactone] | Low |
| C=C1CC/C=C(\C)CC[C@@H]2[C@@H]1CC2(C)C [β-Caryophylene] | Low |

Source: patent US6599548B2, “Ambient stable beverage” (priority 2000, dated 2003)
